Measurements taken from article PMC12011715.
No constants are given. Whether binding was seen depends on the method and setting. In cells and extracts the contact can be indirect. Some entries that bind do so weakly or less than the wild type.

Sequences of proteins named here, by UniProt entry; tags and fusion partners are left off.
UniProt Q01714: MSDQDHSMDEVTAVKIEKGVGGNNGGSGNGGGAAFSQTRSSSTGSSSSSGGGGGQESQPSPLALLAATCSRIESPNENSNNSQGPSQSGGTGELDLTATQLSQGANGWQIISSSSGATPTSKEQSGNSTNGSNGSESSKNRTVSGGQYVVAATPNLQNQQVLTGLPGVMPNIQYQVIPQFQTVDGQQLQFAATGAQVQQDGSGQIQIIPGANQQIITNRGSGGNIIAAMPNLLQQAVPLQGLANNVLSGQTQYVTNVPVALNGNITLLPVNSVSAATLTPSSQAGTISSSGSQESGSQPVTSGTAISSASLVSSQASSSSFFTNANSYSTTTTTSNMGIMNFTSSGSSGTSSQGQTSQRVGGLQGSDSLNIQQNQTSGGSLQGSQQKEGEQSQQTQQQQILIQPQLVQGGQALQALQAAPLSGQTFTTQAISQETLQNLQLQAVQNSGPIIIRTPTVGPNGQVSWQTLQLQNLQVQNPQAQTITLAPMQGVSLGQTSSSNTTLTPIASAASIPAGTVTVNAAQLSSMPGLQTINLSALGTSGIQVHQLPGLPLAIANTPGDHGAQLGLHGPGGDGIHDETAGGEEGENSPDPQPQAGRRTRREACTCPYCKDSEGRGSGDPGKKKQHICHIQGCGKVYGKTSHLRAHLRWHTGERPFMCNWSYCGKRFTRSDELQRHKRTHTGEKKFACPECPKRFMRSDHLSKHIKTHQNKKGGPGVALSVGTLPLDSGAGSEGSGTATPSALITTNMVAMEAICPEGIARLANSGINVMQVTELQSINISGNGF
UniProt P43245: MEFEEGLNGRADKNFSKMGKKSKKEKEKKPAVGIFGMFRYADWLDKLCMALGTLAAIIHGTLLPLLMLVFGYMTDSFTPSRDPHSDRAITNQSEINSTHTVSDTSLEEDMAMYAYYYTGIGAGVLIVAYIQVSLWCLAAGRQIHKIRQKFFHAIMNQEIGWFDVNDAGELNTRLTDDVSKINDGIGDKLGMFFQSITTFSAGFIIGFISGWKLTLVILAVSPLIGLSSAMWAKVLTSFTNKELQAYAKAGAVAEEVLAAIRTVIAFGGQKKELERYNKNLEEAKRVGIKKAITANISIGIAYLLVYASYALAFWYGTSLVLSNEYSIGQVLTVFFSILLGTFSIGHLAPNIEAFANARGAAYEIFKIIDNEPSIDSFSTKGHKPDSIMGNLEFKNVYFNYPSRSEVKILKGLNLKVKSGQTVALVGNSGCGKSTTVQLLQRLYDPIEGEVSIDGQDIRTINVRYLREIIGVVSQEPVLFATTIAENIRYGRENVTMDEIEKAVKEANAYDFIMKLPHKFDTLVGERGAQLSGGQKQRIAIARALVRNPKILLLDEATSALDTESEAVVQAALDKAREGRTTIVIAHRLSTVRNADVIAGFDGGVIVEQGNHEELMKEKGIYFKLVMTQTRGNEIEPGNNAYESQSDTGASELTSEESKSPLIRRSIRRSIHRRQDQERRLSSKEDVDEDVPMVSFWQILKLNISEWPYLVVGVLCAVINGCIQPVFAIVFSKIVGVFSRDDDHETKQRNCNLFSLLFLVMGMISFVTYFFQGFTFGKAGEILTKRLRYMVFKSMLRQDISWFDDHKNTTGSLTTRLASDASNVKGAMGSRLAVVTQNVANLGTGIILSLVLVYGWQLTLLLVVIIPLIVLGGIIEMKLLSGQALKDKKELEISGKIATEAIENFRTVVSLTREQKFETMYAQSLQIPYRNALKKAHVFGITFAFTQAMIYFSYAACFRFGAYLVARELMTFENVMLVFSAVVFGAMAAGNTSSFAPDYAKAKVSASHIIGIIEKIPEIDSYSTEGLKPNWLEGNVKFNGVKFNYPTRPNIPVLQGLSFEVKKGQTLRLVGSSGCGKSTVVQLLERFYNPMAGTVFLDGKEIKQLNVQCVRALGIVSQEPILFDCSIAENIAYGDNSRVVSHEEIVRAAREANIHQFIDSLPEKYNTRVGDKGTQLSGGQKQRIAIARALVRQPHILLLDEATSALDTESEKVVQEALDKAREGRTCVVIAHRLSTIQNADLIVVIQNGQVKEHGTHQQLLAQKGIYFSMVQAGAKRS

Molecular target: SP1-Flag (UniProt Q01714)
Test: co-IP; HEK-293T cells transfected with the overexpression plasmids (SP1-Flag, HDAC5-Myc, ABCB1-HA); native lysis buffer; protein A/G magnetic beads; Western blot with Flag, Myc and HA antibodies

- binding: binds
Substance: ABCB1-HA (from UniProt P43245 1-1277)
